# Primary screen of a compound library

Sequences of proteins named here, by UniProt entry; tags and fusion partners are left off.
UniProt E9BF75, entry or part of it: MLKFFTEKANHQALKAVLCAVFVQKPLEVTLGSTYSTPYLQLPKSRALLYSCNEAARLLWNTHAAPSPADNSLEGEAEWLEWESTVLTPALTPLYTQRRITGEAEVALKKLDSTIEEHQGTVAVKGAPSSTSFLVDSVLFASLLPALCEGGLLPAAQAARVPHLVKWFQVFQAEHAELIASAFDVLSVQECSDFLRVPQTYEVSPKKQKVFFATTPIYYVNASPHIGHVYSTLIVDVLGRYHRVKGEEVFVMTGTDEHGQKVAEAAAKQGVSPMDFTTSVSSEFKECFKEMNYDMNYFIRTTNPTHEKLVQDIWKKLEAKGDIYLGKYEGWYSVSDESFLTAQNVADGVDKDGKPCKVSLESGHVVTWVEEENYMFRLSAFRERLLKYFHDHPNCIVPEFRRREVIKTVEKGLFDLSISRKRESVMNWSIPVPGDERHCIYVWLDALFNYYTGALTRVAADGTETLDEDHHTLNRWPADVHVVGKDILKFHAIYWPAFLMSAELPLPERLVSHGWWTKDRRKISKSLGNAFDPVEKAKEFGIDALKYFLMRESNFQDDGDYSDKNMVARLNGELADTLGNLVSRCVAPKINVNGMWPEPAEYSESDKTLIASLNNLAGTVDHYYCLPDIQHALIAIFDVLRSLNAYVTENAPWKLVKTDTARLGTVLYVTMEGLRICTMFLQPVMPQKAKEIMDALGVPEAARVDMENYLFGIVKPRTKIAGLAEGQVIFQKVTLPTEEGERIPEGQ

Measurements from “University of Dundee, Small-Polar-MMV Screening Library” (2021), ChEMBL document CHEMBL3988442.

A: 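Methionyl-tRNA synthetase (putative), Leishmania donovani (UniProt E9BF75). Primary screen of methionyl-tRNA synthetase; the read-out is not stated. The test concentration is not given. Values are per cent inhibition. Size under these conditions: about 68,000 compounds, about 24 of them at 50% or above in at least one test.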
B: 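Assay on Mycobacterium tuberculosis, filed only as a heat shock assay from Cornell; the read-out is not stated. The concentration is filed as 10 mM, unlikely as a test dose, so the dose is not known. The record gives no direction; compounds that gave an IC50 in retests scored well above the rest, so higher reads as stronger inhibition. Of about 69,000 compounds tested this way, about 930 (1.4%) reached 50% or more in at least one test.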

Results are percentages, as filed. How 0% and 100% were set is not recorded. Most values in the screen are low, and negative values occur. The compounds are a random part of those screened. A dash means the value is not listed here; it may have been measured.

| # | structure | A | B |
|---|---|---|---|
| 1 | `Cc1cn2c(n1)C(CNCc1cnn3ccccc13)CCC2` (stereo not given) | 8.815% | -5.238% |
| 2 | `O=C(O)C(F)(F)F.O=C(O)C(F)(F)F.[H][C@@]12CCN(Cc3ccncc3)[C@]1([H])CC[C@@H](C(=O)NCC1CCOCC1)O2` | - | -14.71% |
| 3 | `Cc1noc(C)c1C(=O)N1CCCN(C)c2ccc(Cl)cc21` | 23.12% | 17.36% |
| 4 | `Cc1nc(C(=O)N2CCOC(Cc3ccc(F)cc3)C2)co1` (stereo not given) | 7.349% | 19.53% |
| 5 | `c1cnc(N2CCO[C@H]3CN(Cc4c[nH]cn4)C[C@H]32)cn1` | 14.6% | - |
| 6 | `CCCc1ncc(C(=O)N2CCOC(c3nc(C)n[nH]3)C2)s1` (stereo not given) | 11.11% | 12.81% |
| 7 | `CC(C(=O)N1CCCN(c2ccc(C#N)cc2)CC1)n1cccn1` (stereo not given) | 5.866% | -20.28% |
| 8 | `Cc1c(CS(C)(=O)=O)cccc1NCC1CCCCC1` | -1.359% | -16.49% |
| 9 | `CN(C)C(c1ccccn1)[C@H]1CC[C@H](CNC(=O)CC2CCCC2)CC1` (stereo not given in full) | 14.89% | -9.462% |
| 10 | `CC(C)N(CC(N)=O)Cc1cccc(C(F)(F)F)c1` | 8.967% | -14.35% |
| 11 | `CC(C)n1cccc1C(=O)N1CC[C@@H](NC(=O)c2ccccn2)[C@H](O)C1` | 6.145% | -16.54% |
| 12 | `CC(C)(C)n1ncc(NCc2ccccc2)c(Cl)c1=O` | -1.393% | 14.95% |
| 13 | `COc1ccc(CN2CCCC2)cc1Oc1ccc(NC(C)=O)cc1` | 13.77% | -8.3% |
| 14 | `CCC(C)N(Cc1sccc1C)C(=O)c1ccc(S(C)(=O)=O)cc1` (stereo not given) | 10.7% | -15.62% |
| 15 | `CCNC(=O)NC(=O)CN1CCOC(c2cccc(Br)c2)C1` (stereo not given) | 13.04% | 1.996% |
| 16 | `COCCNCc1cc2ccc(C)c(C)c2[nH]c1=O` | 3.115% | 12.67% |
| 17 | `CCOc1cc(NC(=O)N(C)Cc2ncnn2C)ccc1C` | 8.211% | -1.913% |
| 18 | `Cc1ccccc1C(O)CNS(=O)(=O)Cc1cccc(C#N)c1` (stereo not given) | 15.73% | 8.731% |
| 19 | `CCN(C)c1ncnc2c1CCN(C(=O)N1CCCC1)CC2.O=C(O)C(F)(F)F` | - | 5.482% |
| 20 | `O=C1CN(CC2CC2)Cc2nc(NCc3ccccc3)sc21` | 6.068% | -17.86% |
| 21 | `O=C(c1cccc2c1OCCO2)N1CCCC1Cn1cccn1` (stereo not given) | 9.966% | 29.57% |
| 22 | `CCn1cnnc1Cn1cccc(C(F)(F)F)c1=O` | 3.623% | 14.66% |
| 23 | `Cn1cccc1C(=O)N1CCO[C@H]2[C@H](OCc3cccnc3)CC[C@@H]21` | 11.11% | - |
| 24 | `CCc1ccc(CNc2ccccc2CN2CCC(O)CC2)o1` | 10.99% | -9.287% |
| 25 | `CC(C)=CCCC(C)CN1CCC(n2cc(C(C)(C)O)nn2)CC1` (stereo not given) | 14.61% | 1.636% |
| 26 | `Cn1cc(CN2C[C@@H](N3CCCC3=O)[C@H]3OCCC[C@H]32)cn1` | 6.574% | - |
| 27 | `CN(C)c1ncccc1N(C)C(=O)Cn1cc(-c2ccccc2)nn1` | 9.777% | -14.23% |
| 28 | `CN1CCN(C(=O)Cc2ccc(F)cc2)Cc2cccnc21.O=C(O)C(F)(F)F` | - | -42.73% |
| 29 | `Cc1n[nH]c(C)c1CCC(=O)N1CCC(O)(CN2CCOCC2)C1` (stereo not given) | 5.901% | -13.1% |
| 30 | `CCN(C(=O)c1c(Cl)cnn1CC)C(C)C(N)=O` (stereo not given) | 17.01% | -12.99% |
| 31 | `O=C(c1cc[nH]n1)N1CC[C@@H]2CN(Cc3ccncc3)S(=O)(=O)[C@@H]2CC1` | 8.651% | - |
| 32 | `O=C(CCc1cccs1)Nc1ccnn1C1CCS(=O)(=O)C1` (stereo not given) | 6.72% | 6.036% |
| 33 | `Cc1nc(N2CCC(C(O)c3nccn3C)CC2)c2c(C)noc2n1` (stereo not given) | 0% | -20.23% |
| 34 | `NC(=O)c1ccc(N2CCN(Cc3ccc(F)cc3Cl)CC2)nn1` | 3.261% | -39.96% |
| 35 | `CC(c1ncc(-c2ccccc2)o1)N1CCN(C(=O)C(C)(C)C)CC1` (stereo not given) | 3.096% | -2.123% |
| 36 | `CC1CCN(c2ncc(-c3ccccc3F)c(-c3nccn3C)n2)CC1` | 5.233% | 17.54% |
| 37 | `C1CC(CN2CCO[C@H]3[C@H](OCC4CC4)CC[C@@H]32)CCO1` | 8.571% | - |
| 38 | `Cc1cc2cc(NC(=O)Cn3ncc(N4CCCC4)cc3=O)ccc2o1` | 11.88% | 7.441% |
| 39 | `COc1cccc2c1OCC(C(=O)N1CCN(S(C)(=O)=O)CC1)C2` (stereo not given) | 11.85% | -8.243% |
| 40 | `Cc1cnc(C(=O)N2CCCC(n3cncn3)C2)cn1` (stereo not given) | 14.81% | -8.36% |
| 41 | `c1ccc(CCc2noc(CN3CCC(N4CCSCC4)CC3)n2)cc1` | 3.97% | 6.704% |
| 42 | `CCN1C[C@@H]2CN(C(=O)C3CC=CC3)C[C@@H]2C1=O` | 0.7246% | - |
| 43 | `O=C(CCc1ccco1)Nc1ncn(CC(=O)N2CCCCCC2)n1` | 12.32% | 20.94% |
| 44 | `Cn1nc(COCC2CC2)c2c1CN(C(=O)c1ccno1)CC2` | 9.343% | - |
| 45 | `CCNCCc1nc2cc(F)ccc2[nH]1.Cl` | - | -17.57% |
| 46 | `CCS(=O)(=O)N1Cc2ncn(C)c2C(COCC2CCOCC2)C1.O=C(O)C(F)(F)F` (stereo not given) | - | 10.55% |
| 47 | `Cc1ccncc1C(=O)N1C[C@H]2CN(CC3CCC3)C[C@@]2(C(=O)O)C1` | 11.67% | - |
| 48 | `CC(C)C(Nc1nc(C(F)(F)F)nc2ccccc12)C(=O)O` (stereo not given) | -3.377% | 5.833% |
| 49 | `O=C(C1=CCCC1)N1CCC[C@]2(C[C@@H](OCc3ccncc3)CO2)C1.O=C(O)C(F)(F)F` | - | 16.1% |
| 50 | `Cc1c(C(=O)N2CCC3(CCC(=O)N(CCN(C)C)C3)CC2)ccn1C` | 10.96% | 2.604% |
| 51 | `C/C=C(\C)CN1C[C@@H](NC(=O)c2ccc(O)c(Cl)c2)C[C@H]1C(=O)NCC` | 17.25% | 30.23% |
| 52 | `Cc1cccc2c1nc1n2[C@@H](CNC(=O)C2CCOCC2)COC1` | 9.831% | -13.68% |
| 53 | `O=C(NCc1ccon1)c1c(F)cc(Br)cc1F` | 6.178% | -5.195% |
| 54 | `CCN(c1ccc(C(=O)N2CCC(C)CC2)cc1)S(=O)(=O)CC` | 3.944% | 13.15% |
| 55 | `O=C(NCCc1ccncc1)[C@@H]1CC[C@@H]2[C@@H](CCN2Cc2ccco2)O1` | 2.222% | - |
| 56 | `COc1c(C2CCCN2C(=O)Cc2c(C)noc2C)c(C)nn1C` (stereo not given) | 10.8% | 11.29% |
| 57 | `O=C(CC1CC1)N1CCc2ncc(CN3CCOCC3)n2CC1` | 11.94% | - |
| 58 | `Cc1cccc(CN(Cc2ccc(C)o2)C2CC(C)(C)NC(C)(C)C2)n1.O=C(O)CC(O)(CC(=O)O)C(=O)O` | - | 8.325% |
| 59 | `CNC(=O)CN1C(=O)CCC12CCCN(Cc1cccc(F)c1)C2.O=C(O)C(F)(F)F.O=C(O)C(F)(F)F` (stereo not given) | - | 1.959% |
| 60 | `CN(C)Cc1ccccc1NC(=O)c1ccc(C#N)cc1` | -4.01% | -24.53% |
| 61 | `CC(NC1(CNS(=O)(=O)N(C)C)CCCC1)c1ccccc1` (stereo not given) | 4.188% | -5.013% |

For reference, 6 entries once more:

| structure | A | B |
|---|---|---|
| `CC(c1ncc(-c2ccccc2)o1)N1CCN(C(=O)C(C)(C)C)CC1` (stereo not given) | 3.096% | -2.123% |
| `O=C(C1=CCCC1)N1CCC[C@]2(C[C@@H](OCc3ccncc3)CO2)C1.O=C(O)C(F)(F)F` | - | 16.1% |
| `Cc1ccncc1C(=O)N1C[C@H]2CN(CC3CCC3)C[C@@]2(C(=O)O)C1` | 11.67% | - |
| `Cc1nc(C(=O)N2CCOC(Cc3ccc(F)cc3)C2)co1` (stereo not given) | 7.349% | 19.53% |
| `CC(C)C(Nc1nc(C(F)(F)F)nc2ccccc12)C(=O)O` (stereo not given) | -3.377% | 5.833% |
| `CCNCCc1nc2cc(F)ccc2[nH]1.Cl` | - | -17.57% |